No constants are given. Whether binding was seen depends on the method and setting. For part of these data: Binding seen in cells or lysates may run through a third protein. Some results given as binding are weak or reduced against the parent protein; the word gives no strength.
Experiments:
[1] = target: Hemoglobin scavenger receptor CD163 (membrane-bound) (mouse (endogenous in Townes mouse liver)) (UniProt Q2VLH6); experiment: ELISA; sandwich: SCD mouse liver lysate applied to a plate coated with CD163-specific antibodies; antibodies to Hba or HO-1 or control IgG with HRP-conjugated secondary antibody; absorbance at 450 nm
[2] = target: Hemoglobin scavenger receptor CD163 (membrane-bound) (mouse (endogenous in Townes mouse liver)) (UniProt Q2VLH6); experiment: proximity ligation; fixed, permeabilised cryosections of control (AS) and SCD mouse liver; Duolink in situ detection reagent red; controls with just one primary antibody; confocal imaging
[3] = target: Hemoglobin scavenger receptor CD163 (membrane-bound) (mouse (endogenous in Townes mouse liver)) (UniProt Q2VLH6); experiment: co-IP; SCD mouse liver tissue lysate; Pierce Direct IP kit, antibody cross-linked to resin (the methods name anti-TLR9 and normal mouse IgG), 4°C overnight, immunoblot; also livers after hypoxia, after LPS and of 7-mo-old SCD mice

By UniProt entry, the sequences of proteins in these tests, tags left out. Residues count along the entry.
UniProt Q2VLH6, residues 39-1121: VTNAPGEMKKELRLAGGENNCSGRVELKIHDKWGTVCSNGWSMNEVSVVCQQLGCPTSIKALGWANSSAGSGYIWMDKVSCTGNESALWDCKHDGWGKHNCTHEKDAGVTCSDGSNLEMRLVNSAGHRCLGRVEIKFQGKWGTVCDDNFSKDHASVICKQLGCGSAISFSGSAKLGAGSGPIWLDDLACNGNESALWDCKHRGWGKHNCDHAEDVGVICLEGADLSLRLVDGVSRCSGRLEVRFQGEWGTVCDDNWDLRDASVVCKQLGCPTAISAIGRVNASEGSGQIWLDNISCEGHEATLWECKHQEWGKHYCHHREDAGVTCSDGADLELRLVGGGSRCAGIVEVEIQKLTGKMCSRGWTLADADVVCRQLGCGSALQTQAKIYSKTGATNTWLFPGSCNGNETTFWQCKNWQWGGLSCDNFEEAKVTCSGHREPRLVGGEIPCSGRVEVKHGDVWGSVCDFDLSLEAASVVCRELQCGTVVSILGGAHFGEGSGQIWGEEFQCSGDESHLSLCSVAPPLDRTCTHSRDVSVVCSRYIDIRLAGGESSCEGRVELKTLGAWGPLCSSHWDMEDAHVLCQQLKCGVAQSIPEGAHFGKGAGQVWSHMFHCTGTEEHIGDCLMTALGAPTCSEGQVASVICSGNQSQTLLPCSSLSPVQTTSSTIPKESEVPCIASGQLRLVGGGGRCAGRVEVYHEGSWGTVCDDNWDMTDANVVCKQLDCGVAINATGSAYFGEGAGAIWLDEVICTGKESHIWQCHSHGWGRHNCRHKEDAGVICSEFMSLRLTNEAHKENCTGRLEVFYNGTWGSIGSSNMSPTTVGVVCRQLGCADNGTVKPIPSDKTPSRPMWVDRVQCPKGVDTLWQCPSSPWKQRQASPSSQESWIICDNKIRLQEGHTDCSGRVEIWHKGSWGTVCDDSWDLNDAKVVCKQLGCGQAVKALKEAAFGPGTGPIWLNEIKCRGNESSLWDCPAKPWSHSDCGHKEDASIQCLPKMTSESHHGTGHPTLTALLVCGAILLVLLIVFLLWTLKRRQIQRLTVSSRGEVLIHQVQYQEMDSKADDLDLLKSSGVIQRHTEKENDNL

Measured: binding

B1: heme oxygenase 1 (enzyme, UniProt P14901 1-289)
chain: MERPQPDSMPQDLSEALKEATKEVHIQAENAEFMKNFQKGQVSREGFKLVMASLYHIYTALEEEIERNKQNPVYAPLYFPEELHRRAALEQDMAFWYGPHWQEIIPCTPATQHYVKRLHEVGRTHPELLVAHAYTRYLGDLSGGQVLKKIAQKAMALPSSGEGLAFFTFPNIDSPTKFKQLYRARMNTLEMTPEVKHRVTEEAKTAFLLNIELFEELQVMLTEEHKDQSPSQMASLRQRPASLVQDTAPAETPRGKPQISTSSSQTPLLQWVLTLSFLLATVAVGIYAM
binds: [1] | [2] | [3]

— article PMC11427010
